These are yes or no findings as the source states them, for the method shown. In cells and extracts the contact can be indirect. Some results given as binding are weak or reduced against the parent protein; the word gives no strength.
Tests used:
[1] = biological target: Beclin-1 (human (endogenous in IM-9 and IM-9/Bcl-2)) (UniProt Q14457); test: co-IP; IM-9 cells in complete medium (control), with 10 μg/ml BetA (24 h) or EBSS (12 h); lysates precipitated with anti-Beclin 1 antibody and protein G-Sepharose, blotted for Bcl-2, Vps34 and Beclin 1
[2] = biological target: HA-tagged Beclin-1 (WT) (human (cDNA by RT-PCR from RNA of the cells)) (UniProt Q14457); test: co-IP; BetA-treated IM-9/Bcl-2 cells transfected with HA-Beclin-1 (WT) or HA-Beclin-1 T119A with or without Flag-DAPK ΔCaM; precipitated with HA antibodies, co-precipitated proteins blotted
[3] = biological target: HA-tagged T119A Beclin-1 mutant (human (cDNA by RT-PCR from RNA of the cells)) (UniProt Q14457); test: as above
[4] = biological target: Beclin-1 (human (endogenous in IM-9 and IM-9/Bcl-2)) (UniProt Q14457); test: co-IP; IM-9/Bcl-2 cells in complete medium (control), with 10 μg/ml BetA (24 h) or EBSS (12 h); lysates precipitated with anti-Beclin 1 antibody and protein G-Sepharose, blotted for Bcl-2, Vps34 and Beclin 1
[5] = biological target: Beclin-1 (human (endogenous in IM-9 and IM-9/Bcl-2)) (UniProt Q14457); test: condition: only cells treated with 10 μg/ml BetA for 24 h (similar to starvation, EBSS 12 h); co-IP; as a1, IM-9/Bcl-2 cells treated with 10 μg/ml BetA for 24 h (EBSS starvation, 12 h, as autophagy control); anti-Beclin 1 precipitate blotted for Bcl-2

Chains of the proteins cited; added tags and fusions are not shown. Lines headed by an entry give the natural chain unless they say otherwise; changes in a name come on top.
UniProt Q14457: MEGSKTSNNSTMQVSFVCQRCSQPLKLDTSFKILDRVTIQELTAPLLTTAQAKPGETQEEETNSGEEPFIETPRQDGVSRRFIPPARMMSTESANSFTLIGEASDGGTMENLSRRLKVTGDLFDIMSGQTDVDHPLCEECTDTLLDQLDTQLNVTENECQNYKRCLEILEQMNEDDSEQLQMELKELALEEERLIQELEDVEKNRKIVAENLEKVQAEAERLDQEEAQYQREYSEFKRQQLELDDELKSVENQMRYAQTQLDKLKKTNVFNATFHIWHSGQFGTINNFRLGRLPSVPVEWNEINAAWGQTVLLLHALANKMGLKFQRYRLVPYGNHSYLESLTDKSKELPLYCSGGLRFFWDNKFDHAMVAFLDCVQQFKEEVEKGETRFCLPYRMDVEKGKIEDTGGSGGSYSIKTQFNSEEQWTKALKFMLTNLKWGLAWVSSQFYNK
UniProt P10415: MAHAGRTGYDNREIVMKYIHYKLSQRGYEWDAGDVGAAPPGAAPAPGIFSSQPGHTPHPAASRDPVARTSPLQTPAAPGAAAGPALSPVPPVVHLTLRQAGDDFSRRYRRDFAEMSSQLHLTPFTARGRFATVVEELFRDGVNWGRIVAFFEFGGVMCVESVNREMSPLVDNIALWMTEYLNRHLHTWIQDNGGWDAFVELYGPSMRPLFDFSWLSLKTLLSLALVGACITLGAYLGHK

Bcl-2 (endogenous in IM-9 cells) (from UniProt P10415 1-239)
binding [1]: binds

Bcl-2 (overexpressed in IM-9/Bcl-2 cells) (from UniProt P10415 1-239)
binding [2]: binds | binding [3]: binds | binding [4]: binds | binding [5]: no binding
